Assay results from patent publication US20240124531A1, “COMPOUNDS AND METHODS FOR EXTENDING HALF LIFE OF BIOMOLECULES” (AFFILOGIC, priority 2021, published 2024).
No constants are given. Whether binding was seen depends on the method and setting. Some binding calls cover weakened binding; strength is not graded here.

By UniProt entry, the sequences of proteins in these tests, tags left out. Where a name states a change or a piece, a line headed by the entry shows the natural chain unless it says otherwise. Residues count along the entry.
UniProt P02768: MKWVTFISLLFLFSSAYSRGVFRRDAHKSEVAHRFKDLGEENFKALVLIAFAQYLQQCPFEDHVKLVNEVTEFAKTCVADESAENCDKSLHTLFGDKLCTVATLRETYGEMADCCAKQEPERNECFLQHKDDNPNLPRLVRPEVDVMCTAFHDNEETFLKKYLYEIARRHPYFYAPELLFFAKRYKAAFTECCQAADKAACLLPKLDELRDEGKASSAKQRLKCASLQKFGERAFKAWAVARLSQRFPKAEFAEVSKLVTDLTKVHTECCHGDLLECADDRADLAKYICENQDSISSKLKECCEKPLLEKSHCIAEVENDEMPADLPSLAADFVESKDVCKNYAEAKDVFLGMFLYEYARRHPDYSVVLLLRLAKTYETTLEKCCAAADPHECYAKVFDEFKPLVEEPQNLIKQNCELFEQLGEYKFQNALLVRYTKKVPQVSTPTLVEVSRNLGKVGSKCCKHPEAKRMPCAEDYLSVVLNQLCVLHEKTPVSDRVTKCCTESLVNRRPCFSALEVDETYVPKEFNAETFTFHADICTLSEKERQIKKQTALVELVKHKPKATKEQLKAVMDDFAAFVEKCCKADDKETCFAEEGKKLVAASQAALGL
human serum albumin Domain I-II (aa1-385): residues 25-409 of P02768
human serum albumin domain II (aa189-385): residues 213-409 of P02768
UniProt P02769, residues 25-607: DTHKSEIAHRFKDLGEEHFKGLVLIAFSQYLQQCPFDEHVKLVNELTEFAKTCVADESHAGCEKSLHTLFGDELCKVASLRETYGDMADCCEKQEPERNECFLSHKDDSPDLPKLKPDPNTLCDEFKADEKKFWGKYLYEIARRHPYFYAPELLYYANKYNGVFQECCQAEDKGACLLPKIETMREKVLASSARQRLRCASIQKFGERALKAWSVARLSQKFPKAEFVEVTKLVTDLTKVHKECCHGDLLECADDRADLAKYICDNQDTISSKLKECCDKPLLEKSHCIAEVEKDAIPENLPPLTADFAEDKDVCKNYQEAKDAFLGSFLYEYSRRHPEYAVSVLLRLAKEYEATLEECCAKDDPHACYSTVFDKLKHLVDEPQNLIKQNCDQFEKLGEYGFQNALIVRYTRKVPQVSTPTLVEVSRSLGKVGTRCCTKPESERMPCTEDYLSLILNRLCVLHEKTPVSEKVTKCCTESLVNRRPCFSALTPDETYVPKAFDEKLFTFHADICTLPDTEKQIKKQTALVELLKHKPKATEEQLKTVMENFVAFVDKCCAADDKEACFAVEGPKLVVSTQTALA
UniProt P49822, residues 25-608: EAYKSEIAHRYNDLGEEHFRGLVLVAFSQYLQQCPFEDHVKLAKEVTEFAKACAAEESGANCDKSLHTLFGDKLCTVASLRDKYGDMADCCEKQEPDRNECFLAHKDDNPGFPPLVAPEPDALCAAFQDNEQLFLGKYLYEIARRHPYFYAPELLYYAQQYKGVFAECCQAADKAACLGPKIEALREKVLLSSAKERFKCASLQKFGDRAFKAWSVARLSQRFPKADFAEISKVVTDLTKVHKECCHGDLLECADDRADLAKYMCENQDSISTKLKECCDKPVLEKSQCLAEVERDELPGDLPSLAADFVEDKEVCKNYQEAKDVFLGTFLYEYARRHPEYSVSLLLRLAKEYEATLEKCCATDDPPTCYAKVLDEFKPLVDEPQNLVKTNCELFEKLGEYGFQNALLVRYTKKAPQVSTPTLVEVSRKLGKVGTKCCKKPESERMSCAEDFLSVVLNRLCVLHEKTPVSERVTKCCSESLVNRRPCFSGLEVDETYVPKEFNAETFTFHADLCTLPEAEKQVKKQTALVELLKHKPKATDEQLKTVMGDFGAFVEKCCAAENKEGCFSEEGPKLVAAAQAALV
UniProt P07724, residues 25-608: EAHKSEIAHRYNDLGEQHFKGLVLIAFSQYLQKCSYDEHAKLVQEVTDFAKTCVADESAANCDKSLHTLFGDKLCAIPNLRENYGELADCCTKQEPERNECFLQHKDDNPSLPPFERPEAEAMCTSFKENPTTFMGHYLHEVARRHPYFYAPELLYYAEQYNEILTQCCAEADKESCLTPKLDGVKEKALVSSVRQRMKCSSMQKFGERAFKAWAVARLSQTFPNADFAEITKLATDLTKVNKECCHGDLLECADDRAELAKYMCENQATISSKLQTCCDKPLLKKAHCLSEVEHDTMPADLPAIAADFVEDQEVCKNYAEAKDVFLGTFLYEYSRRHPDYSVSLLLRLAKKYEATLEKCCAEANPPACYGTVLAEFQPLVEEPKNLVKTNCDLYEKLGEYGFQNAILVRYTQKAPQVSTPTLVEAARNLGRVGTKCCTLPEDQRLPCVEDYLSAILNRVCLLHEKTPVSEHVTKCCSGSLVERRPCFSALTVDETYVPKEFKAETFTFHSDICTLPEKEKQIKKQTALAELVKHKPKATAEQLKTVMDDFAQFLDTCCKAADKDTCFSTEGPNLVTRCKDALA
UniProt P02770, residues 25-608: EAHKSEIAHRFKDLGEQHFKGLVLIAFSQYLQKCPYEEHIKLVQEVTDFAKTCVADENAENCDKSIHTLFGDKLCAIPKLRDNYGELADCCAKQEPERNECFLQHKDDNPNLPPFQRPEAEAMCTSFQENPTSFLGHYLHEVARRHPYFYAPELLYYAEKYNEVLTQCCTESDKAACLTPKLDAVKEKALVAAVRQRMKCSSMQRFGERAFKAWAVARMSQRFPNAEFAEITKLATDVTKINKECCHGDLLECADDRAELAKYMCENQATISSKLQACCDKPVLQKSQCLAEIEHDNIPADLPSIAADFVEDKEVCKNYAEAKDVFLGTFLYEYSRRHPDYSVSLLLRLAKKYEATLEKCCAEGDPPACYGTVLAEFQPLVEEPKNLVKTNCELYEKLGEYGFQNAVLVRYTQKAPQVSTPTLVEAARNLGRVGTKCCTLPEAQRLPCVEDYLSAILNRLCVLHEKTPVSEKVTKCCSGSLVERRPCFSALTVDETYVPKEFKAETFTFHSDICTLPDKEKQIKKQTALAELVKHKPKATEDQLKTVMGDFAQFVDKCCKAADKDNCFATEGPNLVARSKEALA
UniProt A2V9Z4, residues 25-608: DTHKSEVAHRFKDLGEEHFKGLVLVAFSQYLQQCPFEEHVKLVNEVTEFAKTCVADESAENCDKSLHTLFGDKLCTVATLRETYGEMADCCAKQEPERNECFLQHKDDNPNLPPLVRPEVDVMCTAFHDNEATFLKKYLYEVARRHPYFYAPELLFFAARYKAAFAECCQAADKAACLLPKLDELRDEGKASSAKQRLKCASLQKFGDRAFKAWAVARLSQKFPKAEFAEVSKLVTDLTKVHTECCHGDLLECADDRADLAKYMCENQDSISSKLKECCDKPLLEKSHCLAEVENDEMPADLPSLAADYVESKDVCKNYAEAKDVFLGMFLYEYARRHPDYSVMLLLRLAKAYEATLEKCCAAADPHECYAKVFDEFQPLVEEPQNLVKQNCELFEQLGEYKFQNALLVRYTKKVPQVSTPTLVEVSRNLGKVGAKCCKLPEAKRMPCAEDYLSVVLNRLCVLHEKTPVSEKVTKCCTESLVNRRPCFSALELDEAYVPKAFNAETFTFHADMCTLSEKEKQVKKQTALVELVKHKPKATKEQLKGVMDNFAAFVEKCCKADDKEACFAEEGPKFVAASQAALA
UniProt P08835, residues 25-607: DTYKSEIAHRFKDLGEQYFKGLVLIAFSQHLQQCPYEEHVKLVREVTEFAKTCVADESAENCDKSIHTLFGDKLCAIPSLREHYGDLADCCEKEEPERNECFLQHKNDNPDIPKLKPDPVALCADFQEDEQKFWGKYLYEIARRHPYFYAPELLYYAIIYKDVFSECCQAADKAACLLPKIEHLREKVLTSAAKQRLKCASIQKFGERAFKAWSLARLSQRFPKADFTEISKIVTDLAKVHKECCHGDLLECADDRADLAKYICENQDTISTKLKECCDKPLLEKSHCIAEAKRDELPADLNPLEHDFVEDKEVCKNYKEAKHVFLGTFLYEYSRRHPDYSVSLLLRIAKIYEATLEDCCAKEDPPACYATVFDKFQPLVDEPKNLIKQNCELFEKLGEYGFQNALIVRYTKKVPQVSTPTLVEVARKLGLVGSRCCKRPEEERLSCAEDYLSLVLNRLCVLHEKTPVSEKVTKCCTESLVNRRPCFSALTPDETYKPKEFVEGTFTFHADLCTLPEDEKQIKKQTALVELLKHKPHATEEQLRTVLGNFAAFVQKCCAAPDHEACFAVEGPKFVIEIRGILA

How the values were obtained:
human serum albumin [1] = target: T1, human serum albumin (human, UniProt P02768 25-609, biotinylated (sites not given) in the biolayer interferometry of Example 1); test: biolayer interferometry at pH 7.4 and pH 6
T1 construct: Biotinylated HSA immobilised on streptavidin biosensors; also called HSA

[2] = target: Bovine serum albumin (Bovine) (UniProt P02769); test: biolayer interferometry, conditions similar to those for HSA
Dog serum albumin (Dog) [3] = target: Dog serum albumin (Dog) (UniProt P49822); test: as above
Mouse serum albumin [4] = target: T2, Mouse serum albumin (Mouse, UniProt P07724 25-608); test: as above
T2 construct: also called MSA

Rat serum albumin [5] = target: T3, Rat serum albumin (Rat, UniProt P02770 25-608); test: as above
T3 construct: also called RSA

[6] = target: T4, Cynomolgus monkey serum albumin (Cynomolgus monkey, UniProt A2V9Z4 25-608); test: as above
T4 construct: also called CSA

[7] = target: Porcine serum albumin (Porcine) (UniProt P08835); test: as above
[8] = target: Bovine serum albumin (Bovine) (UniProt P02769); test: biolayer interferometry, cross reactivity pattern (graded strength of binding)
Dog serum albumin (Dog) [9] = target: Dog serum albumin (Dog) (UniProt P49822); test: as above
human serum albumin [10] = target: T1, human serum albumin; test: as above
[11] = target: Porcine serum albumin (Porcine) (UniProt P08835); test: as above
Mouse serum albumin [12] = target: T2, Mouse serum albumin; test: as above
Rat serum albumin [13] = target: T3, Rat serum albumin; test: as above
[14] = target: T4, Cynomolgus monkey serum albumin; test: as above
[15] = target: human serum albumin Domain I-II (aa1-385) (human) (UniProt P02768); test: biolayer interferometry; His-tagged Nanofitin on Ni:NTA biosensors, albumin domain at 250 nM, response at 180 sec
[16] = target: human serum albumin domain II (aa189-385) (human) (UniProt P02768); test: as above
[17] = target: human serum albumin Domain I-II (aa1-385) (human) (UniProt P02768); test: biolayer interferometry, His-tagged F06 on Ni-NTA biosensors, albumin domain at 250 nM, response at 180 s
[18] = target: human serum albumin domain II (aa189-385) (human) (UniProt P02768); test: as above
human serum albumin [19] = target: T1, human serum albumin; test: biolayer interferometry, biotinylated HSA on streptavidin biosensors, F06 in solution at 15.6 to 1000 nM, 180 s association and 180 s dissociation

Measured: binding

B1: Nanofitin F06 (designed binder)
chain: VKVKFVFSGEEKEVETSKIKWVLRWGKAVGFKYDDQGKIGYGFVAEKDAPKELLDMLARAEREK
notes: also called anti-albumin Nanofitin
binds: all assays above
